Assay [1] relates to mice after alcohol intake and alcohol abstinence. Particulars: clemastine 10 mg/kg orally every day from end of EtOH administration to final day of behavioral tests; EtOH+clemastine group vs EtOH group; FIG. 5(b).
The test system of assay [2] is patients with multiple sclerosis (MS). The conditions noted are these: Non Patent Literatures 1 and 2; cited from earlier work.

For the molecule `CN1CCC[C@@H]1CCO[C@](C)(c1ccccc1)c1ccc(Cl)cc1` [clemastine], the “recognition dysfunction (novel object recognition test)” value in assay [1] is “significantly remitted”. The “safety and efficacy in patients with multiple sclerosis” value in assay [2] is “proved significant safety and efficacy”.
